Data reported in the supplement of paper PMC3334620.
In all, about 33,000 sequences were measured (“E-score (-0.5 to 0.5)”: median about -0.0059, highest 2% from about 0.26 on). This is one part of the list.

Biological target: T1, Cin5 (UniProt P40917)
T1 sequence: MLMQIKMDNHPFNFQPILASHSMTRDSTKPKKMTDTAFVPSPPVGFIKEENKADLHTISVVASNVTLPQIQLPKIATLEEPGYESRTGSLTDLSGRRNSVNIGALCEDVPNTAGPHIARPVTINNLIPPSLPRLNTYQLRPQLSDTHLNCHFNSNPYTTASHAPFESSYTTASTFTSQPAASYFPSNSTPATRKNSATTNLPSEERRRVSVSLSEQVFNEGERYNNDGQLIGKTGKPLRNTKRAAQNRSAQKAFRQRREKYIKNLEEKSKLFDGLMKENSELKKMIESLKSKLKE
Assay: PBM E-score (8-mer binding enrichment) (E-score (-0.5 to 0.5)); higher = stronger / more preferred TF binding
Details: protein concentration: 100 nM; construct: GST-full length
How it was run: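 E-scores (a modified Wilcoxon-Mann-Whitney statistic) were assigned by the Universal PBM Analysis Suite to every ungapped eight-base word pooled with its reverse complement. The input came from universal all-10-mer Agilent arrays made double-stranded by primer extension and probed with GST-tagged yeast transcription factors at about 100-200 nM. Fluorescent anti-GST detected bound protein, and masliner normalised the scans.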

In order of rising “PBM E-score” value:
1. CCCCCCAG  -0.489
2. AGGGGGGG  -0.486
3. CCTGGTCG  -0.297
4. GTGCCCGA  -0.291
5. AGCCCGTA  -0.259
6. AGGCCCCG  -0.258
7. CCTAGACA  -0.25
8. CGTCCCTA  -0.238
9. CATTGGCC  -0.217
10. CCAGGACG  -0.215
11. CGGAGGAC  -0.212
12. CGGTCCTC  -0.209
13. CAGGTGAC  -0.208
14. CCCCTAGG  -0.2
15. CAGGACCC  -0.19
16. CCCGTCGA  -0.19
17. CCAAGGAA  -0.189
18. GGGACAGA  -0.189
19. CCTTGACA  -0.188
20. CGCTGTTA  -0.182
21. GAGACCCC  -0.176
22. AGGCAAGC  -0.175
23. GTTGCACA  -0.17
24. ACGCCGGA  -0.169
25. CCCGTCAA  -0.162
26. CTGGCTGC  -0.157
27. AGCAGGAG  -0.154
28. CTGCTTCA  -0.153
29. GTGTCGAA  -0.148
30. ACTGCTAG  -0.144
31. CCCGTCGC  -0.143
32. CGAGAACC  -0.135
33. CTGGACAG  -0.132
34. TCAAAGGA  -0.127
35. AGGTACGA  -0.123
36. ACTATGGA  -0.119
37. ATGGTCGC  -0.115
38. CCAGACTC  -0.114
39. GAGAGCAC  -0.11
40. CCACCACA  -0.106
41. CTAAGAGA  -0.105
42. AATGAGGA  -0.105
43. CTGACGAC  -0.103
44. GAAGCCAC  -0.101
45. CGCGACGC  -0.0999
46. ACGTTCCC  -0.0944
47. CCAACTGA  -0.0912
48. CCTCGCGC  -0.0801
49. ATGAGAGG  -0.0789
50. CCAATAGC  -0.0788
51. CACCGACA  -0.0774
52. AGCCGGTA  -0.0767
53. ATGGGAAG  -0.0733
54. CGCTGTGA  -0.0731
55. AGAGTCAG  -0.0724
56. CCCCAAGG  -0.0715
57. AGAGCTCA  -0.0702
58. CATTGCCG  -0.0695
59. CCTACCCA  -0.0673
60. CGATTTGC  -0.066
61. CCAAGTAG  -0.0659
62. AGAGCTTG  -0.0623
63. CTTTTTGA  -0.0601
64. AGAATCTA  -0.0563
65. TACCCTGA  -0.0518
66. CGCAATGC  -0.0471
67. AGTAGACA  -0.0445
68. GCAGGTCC  -0.0437
69. CTTGCAAG  -0.0398
70. CCGGCGCA  -0.0376
71. ATTTTAGG  -0.0296
72. AAGTACTG  -0.0282
73. ACTTTTAG  -0.0275
74. AGACTTTG  -0.0222
75. CACACTTC  -0.0175
76. AAACACAA  -0.0174
77. CGCAGTGA  -0.016
78. GAAGCAGA  -0.0139
79. GGACAGCA  -0.0105
80. GGCTTGAC  -0.0104
81. AAGACGGC  -0.00699
82. AAACACCC  -0.00644
83. ACTTAGCC  -0.00336
84. GGAGGTAA  -0.00128
85. CTTGCGTA  0.00041
86. AACGTTTA  0.00096
87. ACATGACG  0.00136
88. GTACGATA  0.003
89. ACCGTTCT  0.00357
90. AGCAAGAC  0.00492
91. GCCACTCC  0.00604
92. GACACGCA  0.00821
93. TCAAGCGA  0.0108
94. AAACGATA  0.012
95. ACTTGTCA  0.014
96. AAACAGCT  0.0148
97. CGAATGAA  0.0154
98. GAATCTAC  0.0167
99. CCGACTTA  0.0203
100. CTCGTGTA  0.0208
101. ACTAAAAG  0.0211
102. AAATCCAC  0.0254
103. ATCTAGAG  0.0258
104. AAAAGTAG  0.0258
105. GCAGAAAC  0.0275
106. GACAGTAC  0.0368
107. ATTGGTCG  0.0452
108. TGTTAACA  0.0456
109. AAAGTGTC  0.0469
110. AGACGCGA  0.0486
111. ATTCACAG  0.0491
112. AGAGTGAG  0.0504
113. GGTCATGA  0.054
114. CTCATAAA  0.0593
115. ATTGTAAC  0.0597
116. ACACGCCG  0.0675
117. CCACGAAC  0.0703
118. GTAGATAC  0.0747
119. GATCAGTA  0.0752
120. AAGCTGAG  0.0827
121. GCTAGATA  0.0828
122. ACCTCATA  0.0846
123. AGATCGCG  0.0855
124. CATCTAGA  0.0871
125. AACAAAGG  0.0888
126. TATAGTCA  0.0921
127. AACGGGTA  0.0943
128. CTTAGTTC  0.0989
129. CAAGACAC  0.101
130. ACATATCT  0.103
131. ATATGTTA  0.105
132. ATTTTTTC  0.111
133. CACACCTC  0.112
134. GATAAAAA  0.115
135. ACAGCATC  0.119
136. AATTTTGA  0.123
137. ACAATGAA  0.125
138. GCGATCGC  0.125
139. ATCTATGA  0.129
140. CGTCCAAA  0.129
141. CTTTTGCC  0.138
142. ATACCTGA  0.138
143. ATGTGTAG  0.141
144. ATTGTGTA  0.142
145. AACCTAAA  0.148
146. GGATATAA  0.149
147. CACCACTA  0.152
148. CAAAATTA  0.156
149. CGTCATAA  0.157
150. AGTGCAAT  0.159
151. CGAAACTA  0.159
152. ATAGCGTA  0.16
153. ATTTCCTG  0.164
154. CGAGATTC  0.168
155. GATTACAA  0.175
156. ACCACAGT  0.181
157. GAGTGCAA  0.181
158. AATGTGTG  0.182
159. CATGATAC  0.184
160. GTATGGTA  0.186
161. ATTAATTG  0.193
162. ATATACTG  0.202
163. AAGTTACG  0.208
164. AGATGATA  0.212
165. ACGGAATA  0.22
166. ACATCCCG  0.221
167. CGTACTCA  0.228
168. ATGTTATG  0.23
169. GATGAATA  0.243
170. AACTTGTG  0.254
171. AAACATGT  0.261
172. ACGAAGAA  0.284
